The results in this text go back to article doi:10.1101/2025.10.18.683246 (bioRxiv, 2025).

Results are given in words; binding and its absence hold for the method and conditions named. Some binding calls cover weakened binding; strength is not graded here.

The target of experiment [1] is CLCA1 truncated after amino acid 868 (CLCA1-868) (human) (UniProt A8K7I4). In words: SEC.
For experiment [2] the target is unchanged. Kind of experiment: negative-stain electron microscopy.
Experiment [3] concerns the target C-terminal cleavage product (CTP) of CLCA1-868 (human) (UniProt A8K7I4). Kind of experiment: SDS-PAGE with or without DTT and Western blot.
For experiment [4], the target named is Clca1 of mouse colonic mucus (mouse (endogenous in colonic mucus)) (UniProt Q9D7Z6). In words: negative-stain electron microscopy.

B1: CLCA1 truncated after amino acid 868 (CLCA1-868) (domain or fragment, UniProt A8K7I4 22-694; A8K7I4 695-868)
chain 1: NSLIQLNNNGYEGIVVAIDPNVPEDETLIQQIKDMVTQASLYLLEATGKRFYFKNVAILIPETWKTKADYVRPKLETYKNADVLVAESTPPGNDEPYTEQMGNCGEKGERIHLTPDFIAGKKLAEYGPQGRAFVHEWAHLRWGVFDEYNNDEKFYLSNGRIQAVRCSAGITGTNVVKKCQGGSCYTKRCTFNKVTGLYEKGCEFVLQSRQTEKASIMFAQHVDSIVEFCTEQNHNKEAPNKQNQKCNLRSTWEVIRDSEDFKKTTPMTTQPPNPTFSLLQIGQRIVCLVLDKSGSMATGNRLNRLNQAGQLFLLQTVELGSWVGMVTFDSAAHVQNELIQINSGSDRDTLAKRLPAAASGGTSICSGLRSAFTVIRKKYPTDGSEIVLLTDGEDNTISGCFNEVKQSGAIIHTVALGPSAAQELEELSKMTGGLQTYASDQVQNNGLIDAFGALSSGNGAVSQRSIQLESKGLTLQNSQWMNGTVIVDSTVGKDTLFLITWTMQPPQILLWDPSGQKQGGFVVDKNTKMAYLQIPGIAKVGTWKYSLQASSQTLTLTVTSRASNATLPPITVTSKTNKDTSKFPSPLVVYANIRQGASPILRASVTALIESVNGKTVTLELLDNGAGADATKDDGVYSRYFTTYDTNGRYSVKVRALGGVNAARRRVIPQQSG
chain 2: ALYIPGWIENDEIQWNPPRPEINKDDVQHKQVCFSRTSSGGSFVASDVPNAPIPDLFPPGQITDLKAEIHGGSLINLTWTAPGDDYDHGTAHKYIIRISTSILDLRDKFNESLQVNTTALIPKEANSEEVFLFKPENITFENGTDLFIAIQAVDKVDLKSEISNIARVSLFIPP
Regarding B1, the binding entry was “no binding” in experiment [1] and “no binding (tested: 20 µM)” in experiment [2].

B2: C-terminal cleavage product (CTP) of CLCA1-868 (domain or fragment, UniProt A8K7I4 695-868)
chain: ALYIPGWIENDEIQWNPPRPEINKDDVQHKQVCFSRTSSGGSFVASDVPNAPIPDLFPPGQITDLKAEIHGGSLINLTWTAPGDDYDHGTAHKYIIRISTSILDLRDKFNESLQVNTTALIPKEANSEEVFLFKPENITFENGTDLFIAIQAVDKVDLKSEISNIARVSLFIPP
As to B2, the binding entry in experiment [3] is recorded as “no binding”.

B3: Clca1 of mouse colonic mucus (protein, UniProt Q9D7Z6 22-913)
chain: ESLIQLNNNGYEGIVIAIDHDVPEDEALIQHIKDMVTQASPYLFEATGKRFYFKNVAILIPESWKAKPEYTRPKLETFKNADVLVSTTSPLGNDEPYTEHIGACGEKGIRIHLTPDFLAGKKLTQYGPQDRTFVHEWAHFRWGVFNEYNNDEKFYLSKGKPQAVRCSAAITGKNQVRRCQGGSCITNGKCVIDRVTGLYKDNCVFVPDPHQNEKASIMFNQNINSVVEFCTEKNHNQEAPNDQNQRCNLRSTWEVIQESEDFKQTTPMTAQPPAPTFSLLQIGQRIVCLVLDKSGSMLNDDRLNRMNQASRLFLLQTVEQGSWVGMVTFDSAAYVQSELKQLNSGADRDLLIKHLPTVSAGGTSICSGLRTAFTVIKKKYPTDGSEIVLLTDGEDNTISSCFDLVKQSGAIIHTVALGPAAAKELEQLSKMTGGLQTYSSDQVQNNGLVDAFAALSSGNAAIAQHSIQLESRGVNLQNNQWMNGSVIVDSSVGKDTLFLITWTTHPPTIFIWDPSGVEQNGFILDTTTKVAYLQVPGTAKVGFWKYSIQASSQTLTLTVTSRAASATLPPITVTPVVNKNTGKFPSPVTVYASIRQGASPILRASVTALIESVNGKTVTLELLDNGAGADATKNDGVYSRFFTAFDANGRYSVKIWALGGVTSDRQRAAPPKNRAMYIDGWIEDGEVRMNPPRPETSYVQDKQLCFSRTSSGGSFVATNVPAAAPIPDLFPPCQITDLKASIQGQNLVNLTWTAPGDDYDHGRASNYIIRMSTSIVDLRDHFNTSLQVNTTGLIPKEASSEEIFEFELGGNTFGNGTDIFIAIQAVDKSNLKSEISNIARVSVFIPAQEPPIPEDSTPPCPDISINSTIPGIHVLKIMWKWLGEMQVTLGLH
Take B3: the binding entry in experiment [4] was “binds”.
